From publication PMC8120472
These are yes or no findings as the source states them, for the method shown. Binding seen in cells or lysates may run through a third protein. Some binding calls cover weakened binding; strength is not graded here.

By UniProt entry, the sequences of proteins in these tests, tags left out.
UniProt P30904: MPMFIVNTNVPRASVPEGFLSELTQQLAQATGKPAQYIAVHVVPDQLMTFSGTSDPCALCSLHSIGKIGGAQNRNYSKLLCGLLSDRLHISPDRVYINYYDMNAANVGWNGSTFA

Target: Macrophage migration inhibitory factor (UniProt P30904)
Experiment: co-IP; lysates (500 μg) of rat primary joint capsule fibroblasts treated with 2 μg/mL MIF for 24 h; precleared with protein A plus G-Sepharose, incubated with anti-MIF or anti-CD74 antibody at 4 °C, immunoblot with anti-MIF or anti-CD74

binding: binds
B1: CD74 membrane receptor (receptor, UniProt P10247 1-280)
chain: MDDQRDLISNHEQLPILGQRARAPESNCNRGVLYTSVSVLVALLLAGQATTAYFLYQQQGRLDKLTVTSQNLQLENLRMKLPKSAKPVSPMRMATPLLMRPLSMDNMLQAPVKNVTKYGNMTQDHVMHLLTKSGPVNYPQLKGSFPENLKHLKNSMNGLDWKVFESWMKQWLLFEMSKNSLEEKQPTQTPPKVLTKCQEEVSHIPDVHPGAFRPKCDENGNYMPLQCHGSTGYCWCVFPNGTEVPHTKSRGRHNCSEPLDMEDPSSGLGVTKQDMGQMFL
